Test results from the supplement of paper PMC10338343.
± gives the standard deviation. This is a selection; strong and weak results do not stand in their true shares. Many entries were measured with a wide error.

The sequences below were run on MILI (PIWIL2) piRISC loaded with L1MC piRNA (26 nt) (assay: pre-steady-state target cleavage rate (min^-1); MIWI and MILI are mouse PIWI proteins and EfPiwi is from a freshwater sponge; tags in brackets are library labels; higher = faster piRNA-guided slicing of the target). Settings: guide: L1MC piRNA 5'p-UAACUAAAUACUAUGCAAGCUGUAGG; auxiliary factor: 500 nM mouse GTSF1.
Protocol: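 Cleave-'n-Seq: a library of target RNAs (target site embedded in constant flanks, ACAGCATTCCGCGTTAGTGATATCCG... 5' flank; DNA-blocked outside the site) at 0.1 nM was incubated with 1 nM active mouse MILI or MIWI piRISC (synthetic 5'-monophosphorylated piRNA guide) with or without 500 nM mouse GTSF1 at 33 °C for 1 min to 16 h. Uncleaved targets were sequenced and normalised to non-target controls, and the pooled three trials were fitted to a burst-and-steady-state model to give the pre-steady-state cleavage rate (min^-1; k3 is constrained to at most 1e-4). Sequence is the target site only; target names encode pairing extent (gX:gY) and contiguous / 1-mismatch / 2-mismatch / bulge geometry. Fits with R² ≤ 0 are excluded.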
For UCCUCGAACAGCUUGCAUAGUAUUUUCAAA, the “pre-steady-state target cleavage rate” value was 0.102 ± 0.021. With UCCUGGAUGUCCUUGCAUAGUAUUUAGUUUA the “pre-steady-state target cleavage rate” value was 0.104 ± 0.015. In the case of UCCUGGAACAGCUACCAUAGUAUUUAGUAA, the “pre-steady-state target cleavage rate” value is reported as 0.23 ± 0.028. UCCUGGAUGUCGAACCAAAGUAUUUAGUAA was tested, and the “pre-steady-state target cleavage rate” value was 0.000399 ± 0.017. With UCCUGGAUGUCGAACCAUAGUAUUUUCUUA the “pre-steady-state target cleavage rate” value was 0.000114 ± 0.027. In the case of UCCUGGAACAGCUUGCAUAGUAUAUAGUUA, the “pre-steady-state target cleavage rate” value is reported as 0.296 ± 0.029. For UCCUCCUACAGCUUGCAUAGUAUUUUCUUA, the “pre-steady-state target cleavage rate” value was 0.126 ± 0.027. For UCCUGGAUGUCGAACCAUAGUAUUUAUUA, the “pre-steady-state target cleavage rate” value was 0.000148 ± 0.029. With UCCUGGAUCAGCUUGCAUAGAUAUUAGUAA the “pre-steady-state target cleavage rate” value was 0.00413 ± 0.0043. For UCCUCCUUCAGCUUGCAAAGUAUUUAGUUA, the “pre-steady-state target cleavage rate” value was 0.162 ± 0.015. For UCCUGGAUGUCCUUGCAUAGUAUUUACAUA, the “pre-steady-state target cleavage rate” value was 0.039 ± 0.013. For UCCUCCUACAGCUUGCAUAGUAAUUACAAA, the “pre-steady-state target cleavage rate” value was 0.18 ± 0.039.

Same assay, conditions: guide: L1MC piRNA 5'p-UAACUAAAUACUAUGCAAGCUGUAGG; auxiliary factor: none (no GTSF1)
UCCUGGAUGUGCUUGCAAAGUAUUUUGUUA was tested, and the “pre-steady-state target cleavage rate” value was 0.00226 ± 0.0038. UCCUGGAUGUCGAACCAUAGUAUUUAGUGA was tested, and the “pre-steady-state target cleavage rate” value was 0.000299 ± 0.01. UCCUCGAACAGCUUGCAUAGUAUUUUCAAA was tested, and the “pre-steady-state target cleavage rate” value was 0.00095 ± 0.0068. With UCCUCCUACAGCUUCGAUAGUAUUUAGAAA the “pre-steady-state target cleavage rate” value was 0.000568 ± 0.0082. UCCUGGAUGUCGUUGCAUAGUAUUUACUAA was tested, and the “pre-steady-state target cleavage rate” value was 0.00052 ± 0.0092. For UCCUGGAUGUGGUUGCAUAGUAUUUACUUA, the “pre-steady-state target cleavage rate” value was 0.00211 ± 0.0049. With UCCUGGAUGUCCUUGCAUAGUAUUUAGUUUA the “pre-steady-state target cleavage rate” value was 0.00891 ± 0.0035. UCCUGGAACAGCUACCAUAGUAUUUAGUAA was tested, and the “pre-steady-state target cleavage rate” value was 0.00298 ± 0.0029. UCCUGGAACAGCAUGCAUAGUAUUUAGAAA was tested, and the “pre-steady-state target cleavage rate” value was 0.00289 ± 0.0032. UCCUGGAUGUCGAACCAAAGUAUUUAGUAA was tested, and the “pre-steady-state target cleavage rate” value was under 0.0001. For UCCUGGAUGUCGAACCAUAGUAUUUUCUUA, the “pre-steady-state target cleavage rate” value was 0.000156 ± 0.027. With UCCUGGUUGUGCUUGCAUAGUAUUUUCAAA the “pre-steady-state target cleavage rate” value was 0.00137 ± 0.0049. UCCUGGAACAGCUUGCAUAGUAUAUAGUUA was tested, and the “pre-steady-state target cleavage rate” value was 0.00847 ± 0.0025. In the case of UCCUGCUACAGCUUGCAUAGUAUAUAGAAA, the “pre-steady-state target cleavage rate” value is reported as 0.000995 ± 0.0065. In the case of UCCUGGAUGUCGAAGCAUAGUUUUAAGUUA, the “pre-steady-state target cleavage rate” value is reported as 0.000753 ± 0.007. In the case of UCCUGGAUCAGCUUGCAUAGAUAUUAGUAA, the “pre-steady-state target cleavage rate” value is reported as 0.000484 ± 0.013. UCCUCCUACAGCUUGCAUAGAAUUUAGAAA was tested, and the “pre-steady-state target cleavage rate” value was 0.000849 ± 0.0068. For UCCUCCUUCAGCUUGCAAAGUAUUUAGUUA, the “pre-steady-state target cleavage rate” value was 0.00632 ± 0.0021. With UCCUGGAUCAGCUUGCAUAGUAUUAUCAAA the “pre-steady-state target cleavage rate” value was 0.000992 ± 0.0064. With UCCUGGAUGUCCUUGCAUAGUAUUUACAUA the “pre-steady-state target cleavage rate” value was 0.000934 ± 0.0068. With UCCUGGUUGAGCUUGCAUAGUAUUUACAAA the “pre-steady-state target cleavage rate” value was 0.0022 ± 0.0037. With UCCUCCUACAGCUUGCAUAGUAAUUACAAA the “pre-steady-state target cleavage rate” value was 0.00142 ± 0.0043. UCCUGGUACAGCUUGCAUAGUAAUUAGUAA was tested, and the “pre-steady-state target cleavage rate” value was 0.00204 ± 0.0042. With UCCUGGUACAGCUUGCAUAGAUAUUACAAA the “pre-steady-state target cleavage rate” value was 0.000743 ± 0.009. With UCCUGGAUCAGCAUGCAUAGUAUUUACAAA the “pre-steady-state target cleavage rate” value was 0.00112 ± 0.0061. UCCUGCUACAGCUUGCAUUGUAUUUAGAUA was tested, and the “pre-steady-state target cleavage rate” value was 0.00206 ± 0.0031. UCCUGGAUGACCUUGCAUAGUAUUUAGAUA was tested, and the “pre-steady-state target cleavage rate” value was 0.00192 ± 0.0046.
